Values quoted from earlier work, collected in publication PMC10210398, “Genomic, functional and structural analyses elucidate evolutionary innovation within the sea anemone 8 toxin family” (BMC Biology, 2023).

Molecular target: hKV10.1
Conditions: read-out: Kd (positive control concentration equivalent to Kd); KV10.1; no reference given; cited from earlier work
Protocol: Voltage protocols: For measurement of hKV1.1–1.3 and hKV10.1, currents, voltage steps to + 50 mV, were applied from a holding potential of − 120 mV every 15 or 30 s and the peak current was measured. Channels were activated by a series of depolarisation pulses to + 50 mV from a holding potential of − 120 mV. For KV1.1, 50-ms-long activating stimuli were used every 15 s. Due to the highly variable activation kinetics of KV1.2 [145] 200-ms-long pulses were applied every 15 s to maximise the open probability of the channel.

COc1ccc(CCN2CCC(Nc3nc4ccccc4n3Cc3ccc(F)cc3)CC2)cc1 [Astemizole, astemizole, reference compound]
Kd: 2000 nM
